Assay results from patent US20260200919A1, “SUBSTITUTED AMINOPYRIDINE COMPOUNDS AND METHODS OF TREATING DISEASE USING SAME” (Atavistik Bio, Inc., priority 2023, published 2026).
The structures given here were assigned with low confidence; some may be wrong.

Sequences of proteins named here, by UniProt entry; tags and fusion partners are left off.
UniProt P31749, whole entry E17K: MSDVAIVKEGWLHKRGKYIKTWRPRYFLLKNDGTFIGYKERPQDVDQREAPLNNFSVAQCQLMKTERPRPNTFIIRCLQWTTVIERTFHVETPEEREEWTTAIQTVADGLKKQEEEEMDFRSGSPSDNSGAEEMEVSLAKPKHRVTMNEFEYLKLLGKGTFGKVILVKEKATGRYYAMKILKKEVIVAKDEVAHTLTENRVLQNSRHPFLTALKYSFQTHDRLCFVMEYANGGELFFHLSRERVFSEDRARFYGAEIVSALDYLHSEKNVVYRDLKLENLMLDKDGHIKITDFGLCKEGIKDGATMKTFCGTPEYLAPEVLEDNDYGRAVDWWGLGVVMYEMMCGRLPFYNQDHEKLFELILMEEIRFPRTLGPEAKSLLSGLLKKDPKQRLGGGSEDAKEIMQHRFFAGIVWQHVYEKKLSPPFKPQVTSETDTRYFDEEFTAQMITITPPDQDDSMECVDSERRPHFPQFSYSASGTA

Biological target: human recombinant kinase full-length AKT1 E17K (Homo sapiens, UniProt P31749, E17K)
Assay: AKT1 E17K kinase assay (TR-FRET, Lance)
Conditions: read-out: AKT1 E17K Lance IC50; 0.6 nM AKT1 E17K, 50 nM Ulight-CREBtide, either 50 μM ATP or 2 mM ATP (not specified which), 60 min at RT

## Cc1cc(C(=O)Nc2ccc(-n3c(-c4cccnc4N)nc4ccc(-c5ccccc5)nc43)cn2)c(C)cc1C(=O)O
  IC50: 200 to 500 nM
